Results taken from patent US20130039857A1, “METHODS OF SUPPRESSING CANCER, INCREASING WEIGHT LOSS AND/OR INCREASING INSULIN SENSITIVITY” (priority 2010, published 2013).
These are yes or no findings as the source states them, for the method shown. In cells and extracts the contact can be indirect. Some binding calls cover weakened binding; strength is not graded here.

Sequences of proteins named here, by UniProt entry; tags and fusion partners are left off. A change or cut given only in a name is not applied to a line headed by its entry. A line that says so, or that is headed by a name, gives the form on record, which may keep a tag or linker.
Fyn kinase (endogenous, in gastrocnemius skeletal muscle and 3T3L1 adipocyte extracts) (P39688, form named): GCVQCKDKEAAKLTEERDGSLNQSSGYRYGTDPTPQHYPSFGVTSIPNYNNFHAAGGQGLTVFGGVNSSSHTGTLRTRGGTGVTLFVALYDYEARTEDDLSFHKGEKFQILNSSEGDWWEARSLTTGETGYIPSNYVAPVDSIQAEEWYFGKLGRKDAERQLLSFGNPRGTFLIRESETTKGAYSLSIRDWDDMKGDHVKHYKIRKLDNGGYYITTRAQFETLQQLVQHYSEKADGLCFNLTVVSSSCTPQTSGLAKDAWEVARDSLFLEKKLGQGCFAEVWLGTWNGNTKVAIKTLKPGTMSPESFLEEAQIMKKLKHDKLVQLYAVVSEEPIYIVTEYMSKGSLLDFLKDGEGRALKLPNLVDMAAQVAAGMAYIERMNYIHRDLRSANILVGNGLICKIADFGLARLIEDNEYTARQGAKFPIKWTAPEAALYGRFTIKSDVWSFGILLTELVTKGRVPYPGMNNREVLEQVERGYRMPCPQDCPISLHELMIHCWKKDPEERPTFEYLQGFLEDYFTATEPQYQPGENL

Target: Fyn kinase (endogenous, in gastrocnemius skeletal muscle and 3T3L1 adipocyte extracts) (mouse) (UniProt P39688)
Experiment: co-immunoprecipitation: extracts precipitated with rabbit polyclonal Fyn antibody, blotted with monoclonal LKB1 antibody

binding: binds
B1: LKB1 (endogenous, in skeletal muscle and 3T3L1 adipocyte extracts) (enzyme, mouse, UniProt Q9WTK7 1-433, looked up)
chain: MDVADPEPLGLFSEGELMSVGMDTFIHRIDSTEVIYQPRRKRAKLIGKYLMGDLLGEGSYGKVKEVLDSETLCRRAVKILKKKKLRRIPNGEANVKKEIQLLRRLRHRNVIQLVDVLYNEEKQKMYMVMEYCVCGMQEMLDSVPEKRFPVCQAHGYFRQLIDGLEYLHSQGIVHKDIKPGNLLLTTNGTLKISDLGVAEALHPFAVDDTCRTSQGSPAFQPPEIANGLDTFSGFKVDIWSAGVTLYNITTGLYPFEGDNIYKLFENIGRGDFTIPCDCGPPLSDLLRGMLEYEPAKRFSIRQIRQHSWFRKKHPLAEALVPIPPSPDTKDRWRSMTVVPYLEDLHGRAEEEEEEDLFDIEDGIIYTQDFTVPGQVLEEEVGQNGQSHSLPKAVCVNGTEPQLSSKVKPEGRPGTANPARKVCSSNKIRRLSAC
